Experimental data taken from the supplement of paper PMC12009310.
Structures can show the parent of a compound that is named as a salt. ± gives the standard deviation of the averaged measurements. The list shows a part of the results. Baselines shift from plate to plate; read single values as rough.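 The cells are a mouse kidney inner medullary collecting duct line, silenced either for the ciliary gene Rpgrip1l or with a non-targeting control siRNA. Primary scores are means of two runs against batch controls; in the follow-up screen a hit raised cilia by at least 2 over its matching control, and compounds dropping cell number by 2 or more were excluded. The cells are a mouse kidney inner medullary collecting duct line, silenced either for the ciliary gene Rpgrip1l or with a non-targeting control siRNA.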

Tests used:
mIMCD3 [1] = assay: robust z score of cell number vs plate controls; higher = more cells (less cytotoxic); conditions: 10 µM, 48 h
mIMCD3 [2] = assay: robust z cell number difference from vehicle control (robust z score difference); higher = more cells; conditions: 10 µM, 48 h
mIMCD3 [3] = assay: robust z score of cilia incidence (% cells with single cilium) vs plate controls; higher = more ciliated cells; conditions: 10 µM; 48 h; siRNA: siScr
mIMCD3 [4] = assay: robust z cilia incidence difference from vehicle control (robust z score difference); higher = more ciliated cells; conditions: 10 µM; 48 h; siRNA: siScr
mIMCD3 [5] = assay: robust z cilia incidence difference from vehicle control (robust z score difference); higher = more ciliated cells (rescue); conditions: 10 µM; 48 h; siRNA: siRpgrip1l
mIMCD3 [6] = assay: robust z score of cilia incidence (% cells with single cilium) vs plate controls; higher = more ciliated cells (rescue of cilia loss); conditions: 10 µM; 48 h; siRNA: siRpgrip1l

SMILES | robust z score of cell number (mIMCD3 [1]; siRNA: siRpgrip1l) | robust z score of cell number (mIMCD3 [1]; siRNA: siScr) | robust z cell number difference (mIMCD3 [2]; siRNA: siRpgrip1l) | robust z cell number difference (mIMCD3 [2]; siRNA: siScr) | robust z score of cilia incidence (mIMCD3 [3]) | robust z cilia incidence difference (mIMCD3 [4]) | robust z cilia incidence difference (mIMCD3 [5]) | robust z score of cilia incidence (mIMCD3 [6])
CC(C)NCC(O)COc1cccc2[nH]ccc12 (centres undefined) [Pindolol] | 3.41 ± 7 | 0.679 ± 9.6 | -7.75 | -8.49 ± 1.5 | 0.872 ± 3.1 | -1.26 ± 0.28 | -12.1 | -6.96 ± 6
Nc1c2c(nc3ccccc13)CCCC2 [Tacrine hydrochloride] | -2.12 ± 2.4 | -8.77 ± 8.2 | -12.3 | -7.11 ± 9 | 1.78 ± 3.1 | -3.61 ± 6.7 | -14.2 | -8.59 ± 6.5
CCOC(=O)C1=C(C)NC(=S)NC1c1cccc(O)c1 (centres undefined) [Monastrol] | -15.5 ± 20 | -1.1 ± 0.52 | -14.9 | -11.1 ± 5.1 | 5.06 ± 5.8 | -7.03 ± 2.6 | -21.7 | -5.63 ± 2.1
Cc1nc2c(O)cccc2c(=O)[nH]1 | -9.06 ± 15 | -2.27 ± 0.16 | 0.114 | 0.677 ± 0.91 | 4.99 ± 5 | 4.29 ± 2.1 | 0.678 | -6.02 ± 2.8
O=[N+]([O-])c1cccc2cn[nH]c12 [7-Nitroindazole] | -6.53 ± 5.5 | 9.63 ± 9.5 | 2.61 | 1.39 ± 3.3 | 1.68 ± 1.4 | -3.08 ± 6 | 2.74 | -5.09 ± 13
NC(=O)CCCCn1ccc(NC(N)=NCC(F)(F)F)n1 | -4 ± 3.8 | -4.3 ± 0.14 | -0.317 | -0.578 ± 4 | 2.21 ± 2 | 1.12 ± 0.052 | 0.329 | -1.63 ± 1.9
CC(=O)N[C@@H](CC(=O)N[C@@H](CCC(=O)O)C(=O)O)C(=O)O [Spaglumic acid] | -6.67 ± 14 | 5.46 ± 4.5 | 1.31 | 1.8 ± 3.1 | 0.886 ± 0.87 | -4.53 ± 7.9 | 5.31 | -3.1 ± 4.1
NC(=O)N1c2ccccc2CC(O)c2ccccc21 (centres undefined) [Licarbazepine] | -16.2 ± 22 | -4.93 ± 3.1 | -0.311 | -0.578 ± 1.2 | 1.43 ± 1.1 | 3.78 ± 0.41 | 1.03 | -93.7 ± 140
N[C@@H](Cc1cc(CP(=O)(O)O)cc(-c2ccccc2Cl)c1)C(=O)O | -9.96 ± 16 | 0.915 ± 3.9 | 0.933 | 1.96 ± 2.7 | 1.07 ± 0.83 | 4.15 ± 1.9 | 1.96 | -7.39 ± 5.3
NS(=O)(=O)c1cccc2c1c([N+](=O)[O-])cc1nc(O)c(O)nc12 [NBQX disodium salt] | -4.24 ± 3.7 | 1.9 ± 2 | 2.03 | 0.472 ± 1.9 | 0.597 ± 1.9 | 0.58 ± 1.4 | 5.39 | -10.6 ± 0.12
Clc1cccc(Cl)c1NC1=NCCN1 [Clonidine hydrochloride] | 1.72 ± 3.3 | 1.5 ± 4.7 | -1.72 | 0.368 ± 0.67 | -1.5 ± 1.3 | 4.55 ± 2.6 | -3.68 | -6.45 ± 2.9
Cc1cccc(Nc2cc(Cl)nc(SCC(=O)O)n2)c1C | -8.19 ± 9.6 | 3.16 ± 0.65 | -12.2 | -8.49 ± 3.1 | -1.49 ± 1.2 | -1.07 ± 0.11 | -4.86 | -7.92 ± 0.15
COc1[nH]c2ccc(F)cc2c1C(=O)OCC1CCN(CCNS(C)(=O)=O)CC1.NS(=O)(=O)O | 9.49 ± 18 | -5.37 ± 1.8 | -12.4 | -4.24 ± 7.6 | 0.458 ± 2.6 | 1.22 ± 3.4 | -14.6 | -96.8 ± 37
CC(C)CC(NC(=O)OCC1c2ccccc2-c2ccccc21)C(=O)O (centres undefined) | -5.28 ± 6.5 | 2.27 ± 4.2 | -1.25 | 0.99 ± 0.12 | 0.971 ± 0.52 | -3.09 ± 8.1 | 1.72 | -5.92 ± 6.2
N[C@@H](C(=O)O)c1ccc(C(=O)O)c(C(=O)O)c1 | -12 ± 5.9 | -2.42 ± 2.5 | 0.444 | 0.256 ± 0.53 | 3.4 ± 0.51 | 4.51 ± 2.5 | 2.24 | -9.55 ± 5.8
CC1=C(CC(=O)O)c2cc(F)ccc2/C1=C\c1ccc([S+](C)[O-])cc1 (centres undefined) [Sulindac] | 1.59 ± 5.8 | 0.105 ± 1.2 | -15 | -11.3 ± 6.7 | 7.44 ± 5.3 | -7.9 ± 13 | -18 | -4.89 ± 6.5
OC[C@H]1NC[C@@H](O)[C@@H](O)[C@@H]1O [1-Deoxymannojirimycin hydrochloride] | -19.5 ± 0.34 | -0.248 ± 2.8 | 1.67 | -0.655 ± 2.4 | 0.936 ± 3.2 | 4.94 ± 3.5 | 3.38 | -6.93 ± 1.9
COC(=O)[C@@H]1[C@H]2C[C@H]3c4[nH]c5ccccc5c4CCN3C[C@@H]2CC[C@@H]1O [Yohimbine hydrochloride] | -2.05 ± 0.06 | -1.86 ± 4.8 | -5.32 | -1.7 ± 6.8 | 4.13 ± 3.3 | 3.01 ± 0.6 | -7.65 | -7.58 ± 0.24
NC(C(=O)O)c1ccc(C(=O)O)c(C(=O)O)c1 (racemic) | -11.7 ± 5.7 | -3.42 ± 1.3 | 0.433 | -4.21 ± 3.9 | 0.74 ± 1.8 | 2.85 ± 0.12 | -2.42 | -6.22 ± 3.6
Cn1nnc2c(C(N)=O)ncn2c1=O [Temozolomide] | -3.16 ± 0.78 | 0.805 ± 3.2 | -3.73 | -1.01 ± 0.78 | 0.857 ± 0.3 | 2.66 ± 2.3 | -4.81 | -3.529 ± 0.011
CS(=O)(=O)Nc1c(O)ccc2c1CCCC2C1=NCCN1 (centres undefined) | -5.72 ± 5.9 | -4.43 ± 0.14 | 1.89 | -2.6 ± 3.1 | 2.49 ± 1.5 | -0.663 ± 8.6 | 5.38 | -4.52 ± 7.4
O=C(Nc1ccccc1)c1cc([N+](=O)[O-])ccc1Cl | -10.7 ± 5.2 | -7.29 ± 1.3 | -2.18 | -1.79 ± 1.2 | 4.78 ± 1.8 | 3.95 ± 2.4 | -3.56 | -83.3 ± 70
O=c1nc2ccccc2c2n1CC(CN1CCN(c3ccccc3)CC1)N2 (centres undefined) | -6.16 ± 6.1 | -11.9 ± 16 | -1.38 | -3.06 ± 5.2 | 0.807 ± 0.7 | -4.31 ± 6.2 | -8.43 | -7.35 ± 1.3

Two neighbouring entries out of the list so far:
SMILES | robust z score of cell number (mIMCD3 [1]; siRNA: siRpgrip1l) | robust z score of cell number (mIMCD3 [1]; siRNA: siScr) | robust z cell number difference (mIMCD3 [2]; siRNA: siRpgrip1l) | robust z cell number difference (mIMCD3 [2]; siRNA: siScr) | robust z score of cilia incidence (mIMCD3 [3]) | robust z cilia incidence difference (mIMCD3 [4]) | robust z cilia incidence difference (mIMCD3 [5]) | robust z score of cilia incidence (mIMCD3 [6])
COC(=O)[C@@H]1[C@H]2C[C@H]3c4[nH]c5ccccc5c4CCN3C[C@@H]2CC[C@@H]1O [Yohimbine hydrochloride] | -2.05 ± 0.06 | -1.86 ± 4.8 | -5.32 | -1.7 ± 6.8 | 4.13 ± 3.3 | 3.01 ± 0.6 | -7.65 | -7.58 ± 0.24
NC(C(=O)O)c1ccc(C(=O)O)c(C(=O)O)c1 (racemic) | -11.7 ± 5.7 | -3.42 ± 1.3 | 0.433 | -4.21 ± 3.9 | 0.74 ± 1.8 | 2.85 ± 0.12 | -2.42 | -6.22 ± 3.6
